Measurements taken from paper PMC8253596.

Key:
[1] = biological target: RDV P2N (aa 1-688 of the minor outer capsid protein P2), bait fusion from pGBKT7-P2N (Rice dwarf virus); assay: two-hybrid; Matchmaker Gold Yeast Two-hybrid system; prey in pGADT7, bait in pGBKT7, co-transformed into yeast AH109; growth and colour on SD/-Ade-His-Leu-Trp/X-alpha-Gal
[2] = biological target: RDV P2C (aa 689-1149 of the minor outer capsid protein P2), bait fusion from pGBKT7-P2C (Rice dwarf virus); assay: as above

Binder	binding [1]	binding [2]
N. cincticeps Rab27a, prey fusion from pGADT7-Rab27a (protein, UniProt A0A8F5HWN5 1-223) MSSEYDYLIKFLFLGDSGVGKTSFLIRYTDGSFVSKFVSTVGIDFRLKRVVYKTQGRSHIVNLQLWDTAGQERFRSITTAYYKDAMGFLLLFDLTNEQSFLEVRNWLELLKIHAYCEKPDVILCGNKADLVEKRVVPEERAKELAARYGLEYMETSAESGLNVNRAVDTLLDMVMCRMERGVDEAMTRYLGRPVDSVTVGSTARSRGEGSSTADASEQTGCRC	no binding	–
N. cincticeps Rab5, prey fusion from pGADT7-Rab5 (protein, UniProt A0A8F5HV83 1-214) MANRGGAQRPNGTPQGKICQFKLVLLGESAVGKSSLVLRFVKGQFHEYQESTIGAAFLTQTVCLDDMTVKFEIWDTAGQERYHSLAPMYYRGAQAAIVVYDITNPDTFGRAKTWVKELQRQASPNIVIALAGNKADLANKRSVEFDEAQAYAHENGLLFMETSAKTAMNVNDIFLAIAKKLPKNEQAGGGGSSGQGRRLVESEATTKAPGSCCK	binds	no binding

Results are given in words; binding and its absence hold for the method and conditions named. For part of these data: Binding can be weak; no strength is given. Tags and fused reporters may be left off the sequences shown.
